Consider 17 molecules from patent publication US20050215770A1.

T1: Recombinant soluble human Flag-tagged NogoR (amino acids 1 to 309 of SEQ ID NO:2) (human) (UniProt Q9BZR6)
T1 sequence (chain, biotinylated with Sulfo-NHS-LC-Biotin): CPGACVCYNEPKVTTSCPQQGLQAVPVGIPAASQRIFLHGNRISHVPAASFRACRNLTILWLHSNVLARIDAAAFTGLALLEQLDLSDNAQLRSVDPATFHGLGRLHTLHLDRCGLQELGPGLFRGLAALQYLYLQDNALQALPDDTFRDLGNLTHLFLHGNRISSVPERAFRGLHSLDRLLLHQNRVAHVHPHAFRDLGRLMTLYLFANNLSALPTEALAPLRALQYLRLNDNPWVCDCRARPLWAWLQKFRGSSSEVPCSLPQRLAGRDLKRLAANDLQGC

B1: NGE2968 (scFv)
scFv: QVQLVQSGGGVVQPGRSLRLSCAASGFTFSSYGMHWVRQAPGKGLEWVAVISYDGSIKYYADSVKGRFTISRDNSKNTLYLQMNSLRAEDTAVYYCARTGEYSGYDTSGFQHWGRGTLVTVSSGGGGSGGGGSGGGGSQSVLTQPPSASGTPGQRVTISCSGSSSNIGSNTVNWYQRLPGAAPQLLIYNNDQRPSGIPDRFSGSKSGTSGSLVISGLQSEDEADYYCASWDDSLNGRVFGGGTKLTVLG
B2: NGE2938 (scFv)
scFv: QVQLQQWGPGLVKPSQTLSLTCTVSGGSISSRDHFWSWVRQTPGKGLEWIGYMYYNGITNYNPSLKSRVTISVDTSKNQVSLQLNSVTAADTAVYYCARAPAISSSSWPDPASIDYWGQGTLVTVSSGGGGSGGGGSGGGGSQTVLTQPASVSGSPGQSITISCTGTSSDVGGYNYVSWYQQHPGKAPKLMIYEGSKRPSGVSNRFSGSKSGNTASLTISGLQAEDEADYYCSSYTTRSTRVFGGGTKLTVLG
B3: NGE2868 (scFv)
scFv: EVQLVQSGGVVVQPGGSLRLSCAASGFIFDDYAMHWVRRAPGKGLEWVSLISWDGGSTYYADSVKGRFTISRDNSKNSLYLQMNSLRAEDTALYYCAKDVEGYDFWSTYYGMDAWGQGTTVTVSSGGGGSGGGGSGGGGSQSVLTQPASVSGSPGQSITISCTGTSSDVGGYNYVSWYQQRPGKAPKLMIYEGSKRPSGVSNRFSGSKSGNTASLTISGLQAEDEADYYCSSYTTRSTRVFGGGAKLTVLG
B4: NGE3102 (scFv)
scFv: QVQLVESGGGLVQPGGSLRLSCATSGFTFDDYAMHWVRQAPGKGLEWVSLISWDGGSTYYADSVKSRFTISRDSSNNFLYLQMNSLRAEDTALYCCAKDLNYDFWSGTGMVVWGKGTLVTVSSGGGGSGGGGSGGGGSQSVLTQPASVSGSPGQSITISCTGTSSDVGGYNYVSWYQQHPGKAPKLMIYEGSKRPSGVSNRFSGSKSGNTASLTISGLQAEDEADYYCSSYTTRSTRVFGGGTKLTVLG
B5: NGE2988 (scFv)
scFv: QVQLQQSGPGLVKPSETLSLTCTVSGGSVSSGSYFWSWIRQPPGKGLEWIGNIYYSGSTNYNPSLKSRVTISVDTSRNQFSLKLSSVTAADTAVYYCARGVYYDFWGNHGMDVWGKGSMVTVSSGGGGSGGGGSGGGGSQSVLTQPASVSGSPGQSITISCTGTSSDVGGYNYVSWYQQHPGKAPKLMIYEGSKRPSGVSNRFSGSKSGNTASLTISGLQAEDEADYYCSSYTTRSTRVFGGGTKLTVLG
B6: NGE2889 (scFv)
scFv: EVQLVESGAEVKKPGASVKVSCKASGYTFTSYYMHWVRQAPGQGLEWMGWMNPNSGNTGYAQKFQGRVTMTRNTSISTAYMELSSLRSEDTAVYYCARGGARYYYMDVWGKGTLVTVSSGGGGSGGGGSGGGGSDIVMTQSPSTLSASVGDRVTITCRASQGISSWLAWYQQKPGRAPKVLIYKASTLESGVPSRFSGSGSGTDFTLTISSLQPEDFATYYCQQSHSTPWTFGQGTKLEIKR
B7: NGE2741 (scFv)
scFv: GVQLVQSGAEVKKPGASVKVSCKTSGYSFTDYFIHWVRQAPGQGLEWMGWINPQSGGSHSAQKFHGRVTVTRDTSIKTAYMEVTSLTSDDTAVYFCAREGPPWTNYYFDYWGRGTLVTVSSGGGGSGGGGSGGGGSDIVMTQSPSTLSASVGDRVTITCRASQGISSWLAWYQQKPGRAPKVLIYKASTLESGVPSRFSGSGSGTDFTLTISSLQPEDFATYYCQQSYSAPWTFGQGTKLEIKR
B8: NGE3006 (scFv)
scFv: EVQLVQSGGEVKRPGASVKVSCKASGSTFASYGISWVRQAPGQGLEWMGWISDSNTNTKYAQRFHGRVSLTTDTSTNTAFMELRSLTSDDTAIYYCAVMSEYDYYHYYMDVWGRGTTVTVPSGGGGSGGGGSGGGGSSELTQDPAVSVALGQTVRITCQGDSLRSYYASWYQQKPGQAPVLVIYGKNNRPSGIPDRFSGSSSGNTASLTITGAQAEDEADYYCNSRDSSGNRVFGGGTKLTVLG
B9: NGE2648 (scFv)
scFv: QVQLQQSGRGLVQPGRSLRLSCTASGFTFGDYAMSWVRQAPGKGLEWVGLIRSKAYGGTTEYAASVKGRFTISRDDSKSIAYLQMNSLRTEDTAVYYCATDFWSGYSYWGKGTLVTVSSGGGGSGGGGSGGGGSDIQMTQSPSTLSASIGDRVTITCRASEGIYHWLAWYQQKPGKAPKLLIYKASSLASGAPSRFSGSGSGTDFTLTISSLQPDDFATYYCQQYSNYPLTFGGGTKLEIKR
B10: NGF0532 (scFv)
scFv: EVQLVQSGAEVKRPGASVKVSCKTSGYTFTNFGLSWVRQAPGQGLEWLGWISGSNTDTKYAQRVQGRLTMTTDTSTSTAYMELRSLTSDDTAVYYCARDHSQPMLYSPDYWGRGTLVTVSSGGGGSGGGGSGGGGSAQTVVIQEPSFSVSPGGTVTLTCGLSSGAVSSTHHPSWYQHTPGQPPRTLIYSTHIRSSGVPDRFSASILGNKAALTITGAQADDESNYFCVLYMGFGTWVFGGGTKVTVLG
B11: NGF0503 (scFv)
scFv: QVQLVQSGAEVKKPGSSVKVSCKGSGDTFSISGFSWVRQAPGQGLEWMGGISPLLGTPKYAQKFQGRVTITADESTSAVYMEMSSLRSEDTAVYFCAKTSFVVAPDGTGYLDYWGRGTLVTVSSGGGGSGGGGSGGGGSALDIQLTQSPSTLSASVGDRVTIACRASQSVSRSLAWYQQKPGKAPKLLIYDASRLESGVPSRFSGSGFGTEFTLTITSLQPDDFATYYCQQYKGYSGTFGQGTRLEIKR
B12: NGE2967 (scFv)
scFv: QVQLQQWGAGLLKPSETLSLTCAVYGGSFSGYYWSWIRQPPGKGLEWIGEVDHSGDTTYRPSLRSRVTISVDTSKNQFSLKLSSVTAADTAVYYCARGGSYQDYWGQGTVVTVSSGGGGSGGGGSGGGGSSELTQDPAVSVASGQTVRITCQGDSLRSYYASWYQQKPGQAPVLVIYGKNNRPSGIPDRFSGSSSGNTASLTITGAQAEDEADYYCNSRDSSGNHVVFGGGTKLTVLG
B13: NGF0502 (scFv)
scFv: QLQLQESGPGLVKPSQTLSLTCTVSGGSISSGDYYWSWIRQPPGKGLEWIGYIYYSGSTYYNPSLRSRLTISVDTSKNQFSLNLNSVTAADTAVYYCARDPPPNIAALSSGYYYMDVWGRGTLVTVSSGGGGSGGGGSGGGGSALDIQLTQSPDFLAVSLGERATLKCKASQTVLSSSNKKNFLAWYQQKPGQAPRLLFFWASMREFGVPDRFAGSGSGTDFTLTISSLQTEDVGIYFCQQYYSTPTFGGGTRLEIKR
B14: NGE3040 (scFv)
scFv: EVQLVQSGAEVKKTGSSVKVFCKASGYTFTYRYLHWVRQAPGQALEWMGWITPFNGNTNYAQKFQDRVTITRDRSMTTASMELSSLRSEDTAMYYCVTGSDEYAFEMWGQGTLVTVSSGGGGSGGGGSGGGGSDIVMTQSPSTLSASVGDRVTITCRASQGISSWLAWYQQKPGRAPKVLIYKASTLESGVPSRFSGSGSGTDFTLTISSLQPEDFATYYCQQSYSTPWTFGQGTKLEIKR
B15: NGE2775 (scFv)
scFv: QVQLVQSGGVVVQPGGSLRLSCAASGFTFDDYAMHWVRQAPGKGLEWVSLISWDGGSTYYADSVKGRFTISRDNSKNSLYLQMNSLRAEDTALYYCAKDLNYDFWSGSGIDVWGKGTLVTVSSGGGGSGGGGSGGGGSQSVLTQPASVSGSPGQSITISCTGTSSDVGGYNYVSWYQQHPGKAPKLMIYEGSKRPSGVSNRFSGSKSGNSASLTISGLKTEDEADYYCQSYDSSNHWVFGGGTKLTVLG
B16: NGE3181 (scFv)
scFv: QVQLQQWGAGLLKPSETLSLTCAVYGGSFSGYYWSWIRQPPGKGLEWIGEINHSGSTNYNPSLKSRVTISADTSKNQFSLKLSSVTAADTAVYYCARGSLLLDYWGRGTLVTVSSGGGGSGGGGSGGGGSSELTQDPAVSVALGQTVRITCQGDSLRSYYASWYQQKPGQAPVLVIYGKNNRPSGIPDRFSGSSSGNTASLTITGAQAEDEADYYCNSRDSSGNHVVFGGGTKLTVLG
B17: NGE2638 (scFv)
scFv: QVQLVQSGGGLVKPGGSLRLSCAASGFTFSSYEMNWVRQAPGKGLEWVSYISSSGSTIYYADSVKGRFTISRDNAKNSLYLQMNSLRAEDTAVYYCARASGYDGVWGQGTLVTVSSGGGGSGGGGSGGGGSQSVLTQPPSASGTPGQRVTISCSGSSSNVGSNTVNWYQRLPGAAPQLLIYNNDQRPSGIPDRFSGSKSGTSGSLVISGLQSEDEADYYCASWDDSLNGRVFGGGTKLTVLG

No constants are given. Whether binding was seen depends on the method and setting. Some binding calls cover weakened binding; strength is not graded here. Tags and fused reporters may be left off the sequences shown.

The first assay has as its target T1, Recombinant soluble human Flag-tagged NogoR (amino acids 1 to 309 of SEQ ID NO:2) (human). Put plainly: ECL phage screen (Example 1).
Consider B1, for which the binding result is “binds”.

On to B2, for which the binding result is listed as “binds”.

In the case of B3, the binding entry is given as “binds”.

For the molecule B4, the binding entry was “binds”.

On to B5, for which the binding entry is “binds”.

As for B6, the binding entry is recorded as “binds”.

As to B7, the binding result is recorded as “binds”.

With B8, the binding entry is reported as “binds”.

Consider B9, for which the binding result is on record as “binds”.

With B10, the binding result was “binds”.

Take B11: the binding result is listed as “binds”.

Regarding B12, the binding entry was “binds”.

As to B13, the binding result is reported as “binds”.

As to B14, the binding entry was “binds”.

Consider B15, for which the binding result is given as “binds”.

Consider B16, for which the binding result is reported as “binds”.

For B17, the binding result is “binds”.

The next assay shares this target. Put plainly: ECL phage screen on biotin-rHuNOGOSR-Flag (positive: 5-fold above background).
Consider B1, for which the binding entry is reported as “binds”.

Take B2: the binding result is reported as “binds”.

As to B3, the binding entry is listed as “binds”.

As for B4, the binding entry is “binds”.

Take B5: the binding result is listed as “binds”.

As to B6, the binding entry is listed as “binds”.

B7: the binding result was “binds”.

B8: the binding result is listed as “binds”.

For the molecule B9, the binding result is “binds”.

Regarding B10, the binding result is recorded as “binds”.

For B11, the binding entry is “binds”.

Take B12: the binding result is “binds”.

For the molecule B13, the binding entry is listed as “binds”.

Regarding B14, the binding entry was “binds”.

In the case of B15, the binding entry was “binds”.

As for B16, the binding entry is “binds”.

Consider B17, for which the binding entry was “binds”.
